Assay results published in patent US20080200387A1.
These are yes or no findings as the source states them, for the method shown. Some entries that bind do so weakly or less than the wild type.

Amino acid sequences for entries named in this document (tags omitted). A change or cut given only in a name is not applied to a line headed by its entry.
UniProt P80746: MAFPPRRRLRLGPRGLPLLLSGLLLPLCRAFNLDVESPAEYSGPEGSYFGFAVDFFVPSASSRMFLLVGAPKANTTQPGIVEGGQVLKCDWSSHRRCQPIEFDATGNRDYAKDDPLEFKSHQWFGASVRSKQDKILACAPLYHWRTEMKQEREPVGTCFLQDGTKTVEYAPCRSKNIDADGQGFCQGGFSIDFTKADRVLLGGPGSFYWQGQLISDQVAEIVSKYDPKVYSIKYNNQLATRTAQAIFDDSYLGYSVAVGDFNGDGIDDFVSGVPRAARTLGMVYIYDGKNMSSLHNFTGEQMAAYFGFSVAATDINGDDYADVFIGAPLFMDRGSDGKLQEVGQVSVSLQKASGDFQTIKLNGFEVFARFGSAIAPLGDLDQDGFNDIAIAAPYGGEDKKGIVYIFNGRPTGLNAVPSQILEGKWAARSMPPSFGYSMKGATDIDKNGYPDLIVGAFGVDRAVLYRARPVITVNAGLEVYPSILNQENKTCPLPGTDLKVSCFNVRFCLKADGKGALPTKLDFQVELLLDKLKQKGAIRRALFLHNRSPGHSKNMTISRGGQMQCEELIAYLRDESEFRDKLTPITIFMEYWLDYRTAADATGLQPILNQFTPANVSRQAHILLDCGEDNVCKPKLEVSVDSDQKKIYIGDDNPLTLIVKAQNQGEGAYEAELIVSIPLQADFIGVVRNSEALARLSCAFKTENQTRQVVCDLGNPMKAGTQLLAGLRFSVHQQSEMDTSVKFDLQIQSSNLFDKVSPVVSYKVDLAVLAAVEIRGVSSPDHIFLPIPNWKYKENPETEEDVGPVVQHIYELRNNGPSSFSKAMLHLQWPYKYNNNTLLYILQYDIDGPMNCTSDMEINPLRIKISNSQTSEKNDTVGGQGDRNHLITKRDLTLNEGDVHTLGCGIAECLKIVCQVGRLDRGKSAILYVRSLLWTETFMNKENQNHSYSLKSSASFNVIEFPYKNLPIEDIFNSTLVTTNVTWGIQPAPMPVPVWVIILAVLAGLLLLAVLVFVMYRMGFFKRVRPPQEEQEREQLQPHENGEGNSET
UniProt P00747: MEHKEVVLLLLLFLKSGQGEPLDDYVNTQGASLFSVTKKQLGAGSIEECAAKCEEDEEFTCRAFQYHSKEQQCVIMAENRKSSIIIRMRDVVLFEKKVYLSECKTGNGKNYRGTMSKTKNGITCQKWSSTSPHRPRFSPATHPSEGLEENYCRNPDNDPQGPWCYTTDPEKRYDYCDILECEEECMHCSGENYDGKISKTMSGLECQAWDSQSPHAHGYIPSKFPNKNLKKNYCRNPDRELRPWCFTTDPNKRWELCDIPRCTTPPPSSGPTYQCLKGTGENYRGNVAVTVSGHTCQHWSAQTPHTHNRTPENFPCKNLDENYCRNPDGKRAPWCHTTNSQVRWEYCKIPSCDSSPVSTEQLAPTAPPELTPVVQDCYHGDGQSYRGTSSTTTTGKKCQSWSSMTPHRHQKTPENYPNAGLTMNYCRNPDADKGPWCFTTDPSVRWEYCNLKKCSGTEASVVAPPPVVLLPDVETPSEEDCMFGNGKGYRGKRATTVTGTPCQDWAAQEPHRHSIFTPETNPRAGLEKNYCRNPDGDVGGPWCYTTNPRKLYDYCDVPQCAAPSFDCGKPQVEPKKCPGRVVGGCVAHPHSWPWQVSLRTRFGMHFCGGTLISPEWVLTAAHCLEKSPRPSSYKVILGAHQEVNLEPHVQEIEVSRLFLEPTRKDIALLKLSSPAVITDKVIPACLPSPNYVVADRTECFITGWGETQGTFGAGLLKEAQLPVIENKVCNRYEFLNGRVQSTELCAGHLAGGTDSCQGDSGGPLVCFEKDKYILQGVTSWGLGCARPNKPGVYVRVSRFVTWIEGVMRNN

Biological target: integrin αvβ3 on bovine aortic endothelial cells (BAECs) (bovine) (UniProt P80746+A0AAA9TU76)
Test: ELISA of biotin-labelled kringle protein on BAECs

binding: binds
Substance: K1-5N289A/T346A/L532R (from UniProt P00747 97-562) (ligand)
